# Measurements from the supplement of paper PMC8728848.
# Some of the results follow.
# B1: Awp3 (Candida glabrata), B4UN32 (protein)
# chain: MISFVTLLAILGLLSISWADQTVRSVAGDQRVTDPVIVGDNSILDYYGGSNYDFSNNFEIGRGTLYIGKESYFSSFQSAPTDVPNSFHLLIKNTNNLQNNGQFIIENIKRHANQCSNSSIQVFPINFQNDGEFEIISGGVEGRCCLPTSVIAPQNFLNNGKFYYKVLTDTGSIYSGSCMQNVDIGASTTTTVNNNLWEFTGSINAQINGAVSGAAQINLDGSNMFVNANTFSGQVVNLINGGSFLQTSDPLSNIVVINGLGTSDTGVTSIAVKGKGKSFTYNPSSGIVKLTTVEGKTYAYQIGCGYNTKKFITNNDSGASYESADNFFVLTYSEPYSPQTCQLENSSIFSSNFISTSTSSSSSSSSASSLPSSMSSSLPSSLSSSLSSSLSSSMSSSMSSLFIIPPPYTTTRSSGSSIIDTEIVSFYSTTDSPGHTITGTTTTTLYGPHTHSSVSTPSSSSESSTTSNSSIESSSLPHTSVSSTPESSITPSSNTISSSPTSDFSSVQSSSIMESSSVVASSSVINSSSIVDSSSSSASSLPSSMSSSLSSSMSSSLPSSMSSSLSSSLSSSLSSSMSSSMSSLFIIPPPYTTTRSSGSSIIDTEIVSFYSTTDSPGHTITGTTTTTLYGPHTHSSVSTPSSSSESSTTSNSSIESSSLPHTSVSSTPESSITPSSNTISSSPTSDFSSVQSSSIMESSSVVASSSVINSSSIVDSSSSSASSLPSSMPSSLPSSMSSSLSSSMSSSLSSSLSSSLSSSMSSSMSSLFIIPPPYTTTRSSGSSIIDTEIVSFYSTTDSPGHTITGTTTTTLYGPHTHSSVSTPSSSSESSTTSNSSIESSSLPHTSVSSTPESSITPSSNTISSSPTSDFSSVQSSSIMESSSVVASSSATQSSSVINSSSIVDSSSSSASSLPSSMPSSLPSSLSSSLSSSLSSSMSSSMSSLFIIPPPYTTTRSSGSSIIDTEIVSFYSTTDSPGHTITGTTTTTLYESSIYSSSSSTIQESELSNTSRTTMTSNSSVSISSTSSRSSFSNTKSSTIVISQSASLPDSKTDIILSTSSNIGYSSRSLLSDLGTSISDSDIHHSVLHSTESYSSNESGTNPFTSIASLSNFIPESSSHTSTALGSENSVISSDILTTMSHPVATNSGDKPTTPKRSEQVSTTMTSSGPTPDTSSFDTDGMSAYSRPEFTTNSLEVNKSSTSQLGNNKQTFSNLQLESTRPHSENEVDNNTRLLQSIQQSSTYGTNNVNPLSPTGSISIPLTEDGQGDNNNWNSPATNDLCTQISFNLTATTITVTDRITITDSIHDISSEVITSYIYQTIVDQKTVTQTVDGKSLANKMSSIPKPSSRSLIQPQPPVAIELQEGAASTSRVSLVSLFISIILVLL
# Columns and labels:
# Assay in all cases: glycan array binding signal (z-score within array); higher = stronger binding
# Conditions in all cases: glycan notation: IUPAC condensed, linker removed
# [1] = molecular target: Fuc(a1-2)Gal(b1-4)GlcNAc(b1-3)Gal(b1-4)GlcNAc(b1-3)Gal(b1-4)GlcNAc
# In short: (§1)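 Columns mapping to the same glycan were averaged after glycan names were converted to IUPAC-condensed notation. The data come from 3228 arrays in the Consortium for Functional Glycomics database, limited to those with an available protein sequence. Binding is reported as a within-array Z-score averaged across arrays of one protein sequence and across linkers.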
# [2] = molecular target: Fuc(a1-2)Gal(b1-4)GlcNAc(b1-3)GalNAc
# In short: as §1
# [3] = molecular target: Fuc(a1-2)Gal(b1-4)GlcNAc(b1-3)[Fuc(a1-2)Gal(b1-4)GlcNAc(b1-6)]GalNAc
# In short: as §1
# [4] = molecular target: Fuc(a1-2)Gal(b1-4)GlcNAc(b1-3)[Fuc(a1-3)[Gal(b1-4)]GlcNAc(b1-6)]Gal(b1-4)Glc
# In short: as §1
# [5] = molecular target: Fuc(a1-2)Gal(b1-4)GlcNAc(b1-6)GalNAc
# In short: as §1
# [6] = molecular target: Fuc(a1-2)Gal(b1-4)GlcNAc6S
# In short: as §1
# [7] = molecular target: Fuc(a1-2)Gal(b1-4)[Fuc(a1-3)]GlcNAc
# In short: as §1
# [8] = molecular target: Fuc(a1-2)Gal(b1-4)[Fuc(a1-3)]GlcNAc(b1-2)Man(a1-3)[Fuc(a1-2)Gal(b1-4)[Fuc(a1-3)]GlcNAc(b1-2)Man(a1-6)]Man(b1-4)GlcNAc(b1-4)[Fuc(a1-6)]GlcNAc
# In short: as §1
# [9] = molecular target: Fuc(a1-2)Gal(b1-4)[Fuc(a1-3)]GlcNAc(b1-2)[Fuc(a1-2)Gal(b1-4)[Fuc(a1-3)]GlcNAc(b1-4)]Man(a1-3)[Fuc(a1-2)Gal(b1-4)[Fuc(a1-3)]GlcNAc(b1-2)Man(a1-6)]Man(b1-4)GlcNAc(b1-4)GlcNAc
# In short: as §1
# [10] = molecular target: Fuc(a1-2)Gal(b1-4)[Fuc(a1-3)]GlcNAc(b1-3)Gal(b1-4)[Fuc(a1-3)]GlcNAc
# In short: as §1
# [11] = molecular target: Fuc(a1-2)Gal(b1-4)[Fuc(a1-3)]GlcNAc(b1-3)Gal(b1-4)[Fuc(a1-3)]GlcNAc(b1-3)Gal(b1-4)[Fuc(a1-3)]GlcNAc
# In short: as §1
# [12] = molecular target: Fuc(a1-2)Gal(b1-4)[Fuc(a1-3)]GlcNAc(b1-3)GalNAc
# In short: as §1
# [13] = molecular target: Fuc(a1-2)Gal(b1-4)[Fuc(a1-3)]GlcNAc(b1-3)[Neu5Ac(a2-6)Gal(b1-4)GlcNAc(b1-6)]Gal(b1-4)Glc
# In short: as §1
# [14] = molecular target: Fuc(a1-2)Gal3S(b1-4)GlcNAc
# In short: as §1
# [15] = molecular target: Fuc(a1-2)Gal6S(b1-3)GlcNAc
# In short: as §1
# [16] = molecular target: Fuc(a1-2)Gal6S(b1-3)GlcNAc6S
# In short: as §1
# [17] = molecular target: Fuc(a1-2)Gal6S(b1-4)Glc
# In short: as §1
# [18] = molecular target: Fuc(a1-2)Gal6S(b1-4)Glc6S
# In short: as §1
# [19] = molecular target: Fuc(a1-2)[Gal(a1-3)]Gal
# In short: as §1
# [20] = molecular target: Fuc(a1-2)[Gal(a1-3)]Gal(b1-3)GalNAc
# In short: as §1
# [21] = molecular target: Fuc(a1-2)[Gal(a1-3)]Gal(b1-3)GalNAc(b1-3)Gal(a1-4)Gal(b1-4)Glc
# In short: as §1
# [22] = molecular target: Fuc(a1-2)[Gal(a1-3)]Gal(b1-3)GlcNAc
# In short: as §1
binder,measurement,setting,value
B1,glycan array binding signal (z-score),[1],-0.441
same,glycan array binding signal (z-score),[2],-0.891
same,glycan array binding signal (z-score),[3],-0.368
same,glycan array binding signal (z-score),[4],-0.125
same,glycan array binding signal (z-score),[5],0.16
same,glycan array binding signal (z-score),[6],-0.86
same,glycan array binding signal (z-score),[7],0.092
same,glycan array binding signal (z-score),[8],-0.693
same,glycan array binding signal (z-score),[9],0.778
same,glycan array binding signal (z-score),[10],1.7
same,glycan array binding signal (z-score),[11],1.19
same,glycan array binding signal (z-score),[12],-2.45
same,glycan array binding signal (z-score),[13],-1.1
same,glycan array binding signal (z-score),[14],-0.254
same,glycan array binding signal (z-score),[15],-0.826
same,glycan array binding signal (z-score),[16],-0.102
same,glycan array binding signal (z-score),[17],0.511
same,glycan array binding signal (z-score),[18],-1.42
same,glycan array binding signal (z-score),[19],1.33
same,glycan array binding signal (z-score),[20],-0.302
same,glycan array binding signal (z-score),[21],0.889
same,glycan array binding signal (z-score),[22],-0.69

# Quoted at random: 2 records from the list.
binder,measurement,setting,value
B1,glycan array binding signal (z-score),[11],1.19
same,glycan array binding signal (z-score),[18],-1.42
